PubChem BioAssay AID1259254 | NCATS, 2017
The deposit covers about 59,000 reagents; below is a part drawn at random. About 1,550 of them (2.6%) count as active. 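G2 share is only a proxy for re-replication; each gene was hit by three separate siRNAs, and active genes were retested.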 Unmarked entries are inactive. Reagents against one gene are numbered here. Further read-outs or replicates are left out here. Not stated in the record: the amount of reagent.

Test: 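Genome-wide screen for genes that prevent DNA re-replication in cancer cells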 (primary screen)
Cell system: human HCT116 colorectal cancer cells
Knock-down reagent: single siRNA against human genes
Timing: 3 days
Measured: 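Nuclei stained with Hoechst and imaged; cell-cycle phase assigned by DNA content; G2 share scaled per plate, non-targeting siRNA 0%, GMNN siRNA 100%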
Reading the numbers: G2 robust z-score: higher = more G2 cells, more excess DNA replication
Active means: 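An siRNA counts as active if its G2 robust z-score lies at least 5 MADs above the screen median; here such calls match roughly 38% of GMNN control or more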

| Gene | reagent no. | G2 robust z-score |
| --- | --- | --- |
| RASA2 | 1 | -0.669 |
| RASA2 | 2 | 1.45 |
| RASA2 | 3 | -0.424 |
| MEOX1 | 1 | 0.455 |
| MEOX1 | 2 | -0.00918 |
| MEOX1 | 3 | -0.824 |
| CCDC89 | 1 | 2.67 |
| CCDC89 | 2 | 0.787 |
| CCDC89 | 3 | -1.17 |
| LIMA1 | 1 | -0.382 |
| LIMA1 | 2 | -0.058 |
| LIMA1 | 3 | -0.748 |
| FLJ38576 | 1 | 1.44 |
| FLJ38576 | 2 | 1.21 |
| FLJ38576 | 3 | 0.831 |
| SLC6A11 | 1 | -0.577 |
| SLC6A11 | 2 | 0.175 |
| SLC6A11 | 3 | -0.622 |
| CCDC162P | 1 | 0.172 |
| CCDC162P | 2 | 0.439 |
| CCDC162P | 3 | -0.785 |
| CCDC162P | 4 | -0.58 |
| CCDC162P | 5 | -0.357 |
| CCDC162P | 6 | -0.229 |
| PSMB10 | 1 | -0.934 |
| PSMB10 | 2 | 3.52 |
| PSMB10 | 3 | -0.876 |
| EBF1 | 1 | -1.23 |
| EBF1 | 2 | -0.0579 |
| EBF1 | 3 | 0.687 |
| KCNA7 | 1 | 0.0444 |
| KCNA7 | 2 | 0.238 |
| KCNA7 | 3 | -0.0367 |
| CR2 | 1 | 0.146 |
| CR2 | 2 | 0.182 |
| CR2 | 3 | -0.871 |
| CHMP1A | 1 | 0.704 |
| CHMP1A | 2 | -0.829 |
| CHMP1A | 3 | -0.619 |
| GDF1 | 1 | 0.202 |
| GDF1 | 2 | 0.478 |
| GDF1 | 3 | 1.36 |
| NUDT1 | 1 | 0.0885 |
| NUDT1 | 2 | 1.15 |
| NUDT1 | 3 | 3.5 |
| PIGC | 1 | 2.41 |
| PIGC | 2 | -0.874 |
| PIGC | 3 | -0.0217 |
